Test results published in PubChem BioAssay AID493014 (National Center for Advancing Translational Sciences (NCATS), 2011).
This is one part of the list. Shown are side measurements of this screen, not its main read-out; they come without a call. Compounds called inactive in the main read-out are mostly missing here. Potencies come from curve fits of mixed quality, noted in brackets.

Assay: qHTS Assay to Find Inhibitors of Chronic Active B-Cell Receptor Signaling
Settings: ABC-DLBCL IkBa-CBG/CBR reporter, luminescence ratio (green luciferase fused to IkBa over red control in TMD8 lymphoma cells), 4 h
Procedure, shortened: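 Cell line TMD8 (human ABC DLBCL), stably expressing tet-inducible CBG68-IkBa fusion and CBR; IMDM/0.5% FBS; cpd up to 46 uM; dox induction, 4 h, 37C/5% CO2; dual luminescence; green/red ratio; MG132 control.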

[1] = measured here: CBR red luminescence, cell number
[2] = measured here: IkBa-CBG green luminescence

C=CCNC(=O)C(C#N)c1nc2ccccc2nc1N1CCCCCC1 (centres undefined)
AC50 [1]: 15.8 µM [falling, partial curve]

Cc1nc(-c2cccs2)sc1C(=O)O
AC50 [1]: 20 µM [falling, single point]

Cc1ccccc1OCc1nc2ccccc2c(=O)n1/N=C/c1c[nH]c2ccccc12
AC50 [1]: 29.1 µM [falling, single point]

CC(C)c1onc(C(=O)N2CCCCC2)c1[N+](=O)[O-]
AC50 [1]: 32.6 µM [rising, partial curve, poor fit]

CCOC(=O)c1sc(NC(=O)CSC(=S)N2CCOCC2)nc1C
AC50 [1]: 5.01 µM [falling, partial curve, poor fit]

O=C(NCCN1C(=O)S/C(=C\c2ccc(OC(F)F)cc2)C1=O)C1=COCCO1
AC50 [1]: 16.4 µM [falling, partial curve, poor fit]

Cc1cc(=O)n(C)c(=O)n1CCCCCN1CCCC1
AC50 [1]: 3.66 µM [falling, full curve, poor fit]

O=C(NCc1ccco1)C1CC2CCC1C2 (centres undefined)
AC50 [1]: 0.517 µM [rising, full curve, poor fit]

CCOC(=O)C1=C(N)Oc2ccc3ccccc3c2C1c1cccc(O)c1 (centres undefined)
AC50 [1]: 22.4 µM [falling, single point]
AC50 [2]: 35.5 µM [rising, partial curve, poor fit]

COc1ccc(CNC(=O)COc2ccc(C(=O)c3ccc(F)cc3)cc2)cc1
AC50 [1]: 5.17 µM [rising, full curve, poor fit]
AC50 [2]: 3.66 µM [falling, full curve, poor fit]

O=C(CNC(=O)c1ccco1)NCC(=O)OCc1ccc(F)cc1
AC50 [1]: 12.6 µM [rising, partial curve, poor fit]

COc1cccc(NC(=O)c2ccc(C(=O)c3ccccc3)o2)c1
AC50 [1]: 35.5 µM [falling, single point]

O=C(NCCCSc1ccccc1)c1cc(Br)ccc1O
AC50 [1]: 0.708 µM [falling, full curve, poor fit]

Cc1[nH]c(=O)[nH]c1CN1CCCCC1
AC50 [1]: 25.1 µM [rising, partial curve, poor fit]

CCC1CCCCN1C(=O)COC(=O)c1cc(Br)ccc1Cl (centres undefined)
AC50 [1]: 14.1 µM [rising, partial curve, poor fit]

CCCC1OC2CC3C4CCC5=CC(=O)C=CC5(C)C4C(O)CC3(C)C2(C(=O)O)O1 (centres undefined)
AC50 [1]: 0.891 µM [rising, full curve, poor fit]

COc1ccc(-c2nn(-c3ccccc3)cc2C#N)cc1
AC50 [1]: 1.03 µM [rising, full curve, poor fit]
